# Assay results as given in paper doi:10.1101/2022.06.13.495977.
# By UniProt entry, the sequences of proteins in these tests, tags left out. Where a name states a change or a piece, a line headed by the entry shows the natural chain unless it says otherwise.
# UniProt P03372: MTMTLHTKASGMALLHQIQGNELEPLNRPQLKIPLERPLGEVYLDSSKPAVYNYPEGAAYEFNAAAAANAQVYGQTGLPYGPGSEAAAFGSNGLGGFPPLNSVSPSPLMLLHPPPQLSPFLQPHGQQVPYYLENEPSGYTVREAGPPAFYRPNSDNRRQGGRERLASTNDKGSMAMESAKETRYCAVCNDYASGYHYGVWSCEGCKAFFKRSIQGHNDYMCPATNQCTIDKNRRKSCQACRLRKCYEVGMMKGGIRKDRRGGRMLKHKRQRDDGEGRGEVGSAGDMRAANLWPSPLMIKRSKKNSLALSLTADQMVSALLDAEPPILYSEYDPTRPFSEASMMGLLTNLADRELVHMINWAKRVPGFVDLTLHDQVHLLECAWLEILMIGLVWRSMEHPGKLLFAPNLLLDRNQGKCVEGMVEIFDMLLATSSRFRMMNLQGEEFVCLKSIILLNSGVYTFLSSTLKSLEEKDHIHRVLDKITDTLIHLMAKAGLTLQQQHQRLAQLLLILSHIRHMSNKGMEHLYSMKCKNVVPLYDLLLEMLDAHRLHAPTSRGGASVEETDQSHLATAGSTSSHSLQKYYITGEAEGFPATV
# UniProt P50750: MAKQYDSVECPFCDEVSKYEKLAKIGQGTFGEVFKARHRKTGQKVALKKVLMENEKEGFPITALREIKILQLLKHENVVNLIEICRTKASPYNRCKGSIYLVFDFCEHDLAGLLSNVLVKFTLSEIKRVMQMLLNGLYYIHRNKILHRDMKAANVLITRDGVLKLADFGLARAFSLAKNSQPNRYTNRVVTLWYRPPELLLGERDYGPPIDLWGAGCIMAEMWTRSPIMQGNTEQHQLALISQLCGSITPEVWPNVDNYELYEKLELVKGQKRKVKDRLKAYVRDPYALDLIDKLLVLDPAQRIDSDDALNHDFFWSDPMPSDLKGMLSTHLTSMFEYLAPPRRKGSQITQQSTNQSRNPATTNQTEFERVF
# UniProt Q09472: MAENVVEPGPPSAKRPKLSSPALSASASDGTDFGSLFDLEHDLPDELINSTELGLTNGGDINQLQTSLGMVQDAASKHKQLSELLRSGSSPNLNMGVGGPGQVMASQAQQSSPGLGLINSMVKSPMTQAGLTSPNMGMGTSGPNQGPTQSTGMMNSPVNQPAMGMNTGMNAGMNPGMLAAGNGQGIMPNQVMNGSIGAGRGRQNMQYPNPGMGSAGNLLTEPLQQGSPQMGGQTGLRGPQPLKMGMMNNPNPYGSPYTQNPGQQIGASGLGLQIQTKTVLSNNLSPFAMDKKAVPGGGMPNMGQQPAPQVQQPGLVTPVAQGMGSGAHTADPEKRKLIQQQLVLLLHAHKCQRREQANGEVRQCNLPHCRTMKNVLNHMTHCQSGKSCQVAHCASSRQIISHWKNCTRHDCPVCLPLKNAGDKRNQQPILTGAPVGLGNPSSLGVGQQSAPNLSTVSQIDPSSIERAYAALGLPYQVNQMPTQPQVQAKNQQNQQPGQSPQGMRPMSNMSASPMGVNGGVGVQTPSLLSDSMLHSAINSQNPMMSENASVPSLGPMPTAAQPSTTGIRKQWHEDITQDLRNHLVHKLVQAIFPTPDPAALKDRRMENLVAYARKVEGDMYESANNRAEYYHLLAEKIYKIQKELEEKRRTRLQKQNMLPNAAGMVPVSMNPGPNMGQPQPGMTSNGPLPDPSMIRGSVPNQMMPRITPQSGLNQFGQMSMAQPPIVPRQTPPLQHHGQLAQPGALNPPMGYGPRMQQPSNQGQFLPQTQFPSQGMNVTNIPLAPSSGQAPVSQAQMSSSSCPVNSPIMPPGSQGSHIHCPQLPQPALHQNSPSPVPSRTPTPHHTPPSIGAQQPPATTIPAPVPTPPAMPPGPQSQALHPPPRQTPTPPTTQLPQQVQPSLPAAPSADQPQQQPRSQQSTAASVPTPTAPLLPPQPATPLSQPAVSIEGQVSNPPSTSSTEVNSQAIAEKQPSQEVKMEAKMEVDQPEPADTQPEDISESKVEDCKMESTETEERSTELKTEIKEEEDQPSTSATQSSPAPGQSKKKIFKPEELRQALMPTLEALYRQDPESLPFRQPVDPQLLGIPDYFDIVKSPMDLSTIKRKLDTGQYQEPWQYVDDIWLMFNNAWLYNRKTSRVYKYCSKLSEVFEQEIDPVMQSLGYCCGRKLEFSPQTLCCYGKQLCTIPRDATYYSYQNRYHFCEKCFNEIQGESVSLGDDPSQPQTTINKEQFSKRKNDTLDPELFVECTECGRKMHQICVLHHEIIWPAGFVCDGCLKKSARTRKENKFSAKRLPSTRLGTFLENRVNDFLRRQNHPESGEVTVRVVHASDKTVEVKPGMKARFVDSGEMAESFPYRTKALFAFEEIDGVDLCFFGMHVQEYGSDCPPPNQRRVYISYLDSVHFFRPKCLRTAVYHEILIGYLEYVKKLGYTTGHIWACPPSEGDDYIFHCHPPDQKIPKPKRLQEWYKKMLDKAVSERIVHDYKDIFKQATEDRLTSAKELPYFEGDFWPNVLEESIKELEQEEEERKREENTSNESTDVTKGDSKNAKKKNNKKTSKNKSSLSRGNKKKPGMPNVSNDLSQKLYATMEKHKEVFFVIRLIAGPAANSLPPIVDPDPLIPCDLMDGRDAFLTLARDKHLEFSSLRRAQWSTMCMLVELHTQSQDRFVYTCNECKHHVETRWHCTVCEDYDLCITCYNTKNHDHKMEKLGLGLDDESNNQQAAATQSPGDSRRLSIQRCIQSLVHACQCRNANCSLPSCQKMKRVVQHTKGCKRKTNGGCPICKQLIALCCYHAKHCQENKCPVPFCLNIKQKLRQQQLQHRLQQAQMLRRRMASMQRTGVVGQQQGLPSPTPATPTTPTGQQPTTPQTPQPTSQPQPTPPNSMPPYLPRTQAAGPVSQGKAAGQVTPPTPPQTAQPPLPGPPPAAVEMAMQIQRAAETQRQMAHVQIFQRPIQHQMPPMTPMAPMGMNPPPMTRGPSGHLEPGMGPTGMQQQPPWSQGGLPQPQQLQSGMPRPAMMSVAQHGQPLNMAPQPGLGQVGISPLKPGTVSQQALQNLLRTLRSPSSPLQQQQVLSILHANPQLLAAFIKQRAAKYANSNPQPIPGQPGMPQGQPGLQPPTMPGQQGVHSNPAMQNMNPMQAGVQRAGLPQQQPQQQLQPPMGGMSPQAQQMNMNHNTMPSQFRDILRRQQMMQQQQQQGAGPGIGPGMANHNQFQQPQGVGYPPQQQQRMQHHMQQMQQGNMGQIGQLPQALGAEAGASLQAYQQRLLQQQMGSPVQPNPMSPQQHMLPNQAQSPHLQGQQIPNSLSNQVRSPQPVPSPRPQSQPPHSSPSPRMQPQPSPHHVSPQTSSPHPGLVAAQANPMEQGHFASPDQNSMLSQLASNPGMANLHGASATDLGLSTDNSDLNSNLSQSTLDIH
# These are yes or no findings as the source states them, for the method shown. In cells and extracts the contact can be indirect. These calls come from enrichment with a bait or labelling near it, and not all partners need be listed.
# Key:
# Assay in all cases: affinity purification with mass spectrometry
# [1] = molecular target: Estrogen receptor alpha (ER), wildtype (human (endogenous in Ishikawa)) (UniProt P03372)
# [2] = molecular target: Estrogen receptor alpha D538G mutant (ER-D538G), FLAG-tagged (human (endogenous in Ishikawa)) (UniProt P03372)
# [3] = molecular target: Estrogen receptor alpha Y537S mutant (ER-Y537S), FLAG-tagged (human (endogenous in Ishikawa)) (UniProt P03372)
binding [1],binding [2],binding [3],Substance
binds,binds,binds,Cyclin Dependent Kinase 9 (CDK9) (from UniProt P50750 1-372)
binds,–,–,Histone Acetyltransferase P300 (EP300) (from UniProt Q09472 1-2414)
